Experimental data as given in doi:10.1101/2021.12.14.472599.
Numbering of substitutions follows the chain as printed. These are yes or no findings as the source states them, for the method shown. Some binding calls cover weakened binding; strength is not graded here. Tags and fused reporters may be left off the sequences shown.

Key:
[1] = biological target: T1, GsSir2 protein (Sir2-APAZ subunit of the GsSir2/Ago system), N-terminal His6-tagged (Geobacter sulfurreducens) (UniProt Q74DF6); assay: co-purification on a Ni2+-affinity column
T1 sequence: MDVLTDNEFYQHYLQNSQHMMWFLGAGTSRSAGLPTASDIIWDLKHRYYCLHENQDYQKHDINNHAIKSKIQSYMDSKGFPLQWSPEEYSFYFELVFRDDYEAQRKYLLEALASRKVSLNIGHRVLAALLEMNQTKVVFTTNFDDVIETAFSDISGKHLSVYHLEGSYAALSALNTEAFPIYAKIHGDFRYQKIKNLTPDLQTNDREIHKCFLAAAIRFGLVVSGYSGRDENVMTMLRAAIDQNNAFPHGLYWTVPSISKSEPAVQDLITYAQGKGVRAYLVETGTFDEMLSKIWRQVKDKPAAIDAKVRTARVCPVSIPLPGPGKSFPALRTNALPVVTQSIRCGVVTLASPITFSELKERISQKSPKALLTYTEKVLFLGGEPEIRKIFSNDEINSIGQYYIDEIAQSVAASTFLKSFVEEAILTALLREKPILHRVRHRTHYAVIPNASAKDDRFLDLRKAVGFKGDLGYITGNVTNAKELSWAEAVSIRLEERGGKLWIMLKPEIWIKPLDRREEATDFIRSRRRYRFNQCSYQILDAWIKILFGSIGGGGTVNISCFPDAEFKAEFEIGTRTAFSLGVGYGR

[2] = biological target: T1, GsSir2 protein (Sir2-APAZ subunit of the GsSir2/Ago system), N-terminal His6-tagged (Geobacter sulfurreducens); assay: SEC-MALS
[3] = biological target: T1, GsSir2 protein (Sir2-APAZ subunit of the GsSir2/Ago system), N-terminal His6-tagged (Geobacter sulfurreducens); assay: mass photometry
[4] = biological target: T1, GsSir2 protein (Sir2-APAZ subunit of the GsSir2/Ago system), N-terminal His6-tagged (Geobacter sulfurreducens); assay: SAXS
[5] = biological target: T2, GsSir2(D230A), N-terminal His6-tagged (Geobacter sulfurreducens) (UniProt Q74DF6); assay: SEC
T2 sequence: T1 sequence with D230A

[6] = biological target: T1, GsSir2 protein (Sir2-APAZ subunit of the GsSir2/Ago system), N-terminal His6-tagged (Geobacter sulfurreducens); assay: SEC
[7] = biological target: T3, GsSir2 protein of the GsSir2/Ago-HSH variant (no tag on Sir2) (Geobacter sulfurreducens) (UniProt Q74DF6); assay: SEC
T3 sequence: T1 sequence

Measured: binding

GsAgo protein (short pAgo of the GsSir2/Ago system) (from UniProt Q74DF5 1-473)
not listed: [7]
binds: all other assays above

GsAgo protein with a C-terminal His6-StrepII-His6-tag (HSH-tag) (from UniProt Q74DF5 1-473)
binds: [7]
